The list shows a part of the results.
Key:
Assay in all cases: glycan array binding signal (z-score within array); higher = stronger binding
Conditions in all cases: glycan notation: IUPAC condensed, linker removed
[1] = biological target: Neu5Ac(a2-6)Gal(b1-4)GlcNAc(b1-6)GalNAc
In short: (§1)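 Columns mapping to the same glycan were averaged after glycan names were converted to IUPAC-condensed notation. The data come from 3228 arrays in the Consortium for Functional Glycomics database, limited to those with an available protein sequence. Binding is reported as a within-array Z-score averaged across arrays of one protein sequence and across linkers.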

[2] = biological target: Neu5Ac(a2-6)Gal(b1-4)GlcNAc(b1-6)[Gal(b1-3)GlcNAc(b1-3)]Gal(b1-4)Glc
In short: as §1

[3] = biological target: Neu5Ac(a2-6)Gal(b1-4)GlcNAc(b1-6)[Gal(b1-3)]GalNAc
In short: as §1

[4] = biological target: Neu5Ac(a2-6)Gal(b1-4)GlcNAc6S
In short: as §1

Neu5Ac(a2-6)GalNAc = biological target: Neu5Ac(a2-6)GalNAc
In short: as §1

[5] = biological target: Neu5Ac(a2-6)GalNAc(b1-4)GlcNAc
In short: as §1

[6] = biological target: Neu5Ac(a2-6)GalNAc(b1-4)GlcNAc6S
In short: as §1

[7] = biological target: Neu5Ac(a2-6)GlcNAc(b1-4)GlcNAc
In short: as §1

[8] = biological target: Neu5Ac(a2-6)GlcNAc(b1-4)GlcNAc(b1-4)GlcNAc
In short: as §1

Neu5Ac(a2-8)Neu5Ac = biological target: Neu5Ac(a2-8)Neu5Ac
In short: as §1

[9] = biological target: Neu5Ac(a2-8)Neu5Ac(a2-3)Gal(b1-3)GalNAc(b1-4)[Neu5Ac(a2-3)]Gal(b1-4)Glc
In short: as §1

[10] = biological target: Neu5Ac(a2-8)Neu5Ac(a2-3)Gal(b1-3)GalNAc(b1-4)[Neu5Ac(a2-8)Neu5Ac(a2-3)]Gal(b1-4)Glc
In short: as §1

[11] = biological target: Neu5Ac(a2-8)Neu5Ac(a2-3)Gal(b1-4)Glc
In short: as §1

[12] = biological target: Neu5Ac(a2-8)Neu5Ac(a2-3)Gal(b1-4)GlcNAc
In short: as §1

[13] = biological target: Neu5Ac(a2-8)Neu5Ac(a2-3)[Gal(b1-3)GalNAc(b1-4)]Gal(b1-4)Glc
In short: as §1

[14] = biological target: Neu5Ac(a2-8)Neu5Ac(a2-3)[GalNAc(b1-4)]Gal(b1-4)Glc
In short: as §1

[15] = biological target: Neu5Ac(a2-8)Neu5Ac(a2-8)Neu5Ac
In short: as §1

[16] = biological target: Neu5Ac(a2-8)Neu5Ac(a2-8)Neu5Ac(a2-3)Gal(b1-4)Glc
In short: as §1

[17] = biological target: Neu5Ac(a2-8)Neu5Ac(a2-8)Neu5Ac(a2-3)[Gal(b1-3)GalNAc(b1-4)]Gal(b1-4)Glc
In short: as §1

[18] = biological target: Neu5Ac(a2-8)Neu5Ac(a2-8)Neu5Ac(a2-3)[GalNAc(b1-4)]Gal(b1-4)Glc
In short: as §1

[19] = biological target: Neu5Ac(a2-8)Neu5Ac(a2-8)Neu5Ac(a2-8)Neu5Ac(a2-3)[GalNAc(b1-4)]Gal(b1-4)Glc
In short: as §1

[20] = biological target: Neu5Ac(a2-8)Neu5Gc(a2-3)Gal(b1-4)GlcNAc
In short: as §1

[21] = biological target: Neu5Ac(b2-6)Gal(b1-4)GlcNAc
In short: as §1

Neu5Ac(b2-6)GalNAc = biological target: Neu5Ac(b2-6)GalNAc
In short: as §1

[22] = biological target: Neu5Ac9Ac(a2-3)Gal(b1-3)GlcNAc
In short: as §1

[23] = biological target: Neu5Ac9Ac(a2-3)Gal(b1-4)GlcNAc
In short: as §1

[24] = biological target: Neu5Ac9Ac(a2-6)Gal(b1-4)GlcNAc
In short: as §1

[25] = biological target: Neu5Gc(a2-3)Gal(b1-3)GlcNAc
In short: as §1

[26] = biological target: Neu5Gc(a2-3)Gal(b1-3)[Fuc(a1-4)]GlcNAc
In short: as §1

Neu5Gc(a2-3)Gal(b1-4)Glc = biological target: Neu5Gc(a2-3)Gal(b1-4)Glc
In short: as §1

[27] = biological target: Neu5Gc(a2-3)Gal(b1-4)GlcNAc
In short: as §1

[28] = biological target: Neu5Gc(a2-3)Gal(b1-4)GlcNAc(b1-3)Gal(b1-4)GlcNAc(b1-2)Man(a1-3)[Neu5Gc(a2-3)Gal(b1-4)GlcNAc(b1-3)Gal(b1-4)GlcNAc(b1-2)Man(a1-6)]Man(b1-4)GlcNAc(b1-4)GlcNAc
In short: as §1

[29] = biological target: Neu5Gc(a2-3)Gal(b1-4)[Fuc(a1-3)]GlcNAc
In short: as §1

[30] = biological target: Neu5Gc(a2-6)Gal(b1-4)GlcNAc
In short: as §1

Neu5Gc(a2-6)GalNAc = biological target: Neu5Gc(a2-6)GalNAc
In short: as §1

[31] = biological target: Neu5Gc(a2-8)Neu5Ac(a2-3)Gal(b1-4)GlcNAc
In short: as §1

[32] = biological target: Neu5Gc(a2-8)Neu5Gc(a2-3)Gal(b1-4)GlcNAc
In short: as §1

[33] = biological target: Neu5Gc(a2-8)Neu5Gc(a2-3)Gal(b1-4)GlcNAc(b1-3)Gal(b1-4)GlcNAc
In short: as §1

B1: AntigenI/IIC123 (Streptococcus mutans), C9E3B4 (protein)
chain: MASMTGGQQMGRIHFHYFKLAVQPQVNKEIRNNNDINIDRTLVAKQSVVKFQLKTADLPAGRDETTSFVLVDPLPSGYQFNPEATKAASPGFDVTYDNATNTVTFKATAATLATFNADLTKSVATIYPTVVGQVLNDGATYKNNFTLTVNDAYGIKSNVVRVTTPGKPNDPDNPNNNYIKPTKVNKNENGVVIDGKTVLAGSTNYYELTWDLDQYKNDRSSADTIQKGFYYVDDYPEEALELRQDLVKITDANGNEVTGVSVDNYTNLEAAPQEIRDVLSKAGIRPKGAFQIFRADNPREFYDTYVKTGIDLKIVSPMVVKKQMGQTGGSYENQAYQIDFGNGYASNIIINNVPKINPKKDVTLTLDPADTNNVDGQTIPLNTVFNYRLIGGIIPADHSEELFEYNFYDDYDQTGDHYTGQYKVFAKVDITFKDGSIIKSGAELTQYTTAEVDTAKGAITIKFKEAFLRSVSIDSAFQAESYIQMKRIAVGTFENTYINTVNGVTYSSLEHHHHHH
What does the source list for B1?
glycan array binding signal (z-score) [1]: -0.28; glycan array binding signal (z-score) [2]: -0.387; glycan array binding signal (z-score) [3]: 0.025; glycan array binding signal (z-score) [4]: 1.19; glycan array binding signal (z-score) (Neu5Ac(a2-6)GalNAc): -1.23; glycan array binding signal (z-score) [5]: -0.275; glycan array binding signal (z-score) [6]: 0.337; glycan array binding signal (z-score) [7]: -0.838; glycan array binding signal (z-score) [8]: -1.26; glycan array binding signal (z-score) (Neu5Ac(a2-8)Neu5Ac): -0.548; glycan array binding signal (z-score) [9]: 0.038; glycan array binding signal (z-score) [10]: -0.203; glycan array binding signal (z-score) [11]: -0.225; glycan array binding signal (z-score) [12]: -0.762; glycan array binding signal (z-score) [13]: 1.11; glycan array binding signal (z-score) [14]: -0.496; glycan array binding signal (z-score) [15]: -0.594; glycan array binding signal (z-score) [16]: 0.91; glycan array binding signal (z-score) [17]: -0.19; glycan array binding signal (z-score) [18]: -0.027; glycan array binding signal (z-score) [19]: -0.374; glycan array binding signal (z-score) [20]: -0.866; glycan array binding signal (z-score) [21]: -1.02; glycan array binding signal (z-score) (Neu5Ac(b2-6)GalNAc): -0.522; glycan array binding signal (z-score) [22]: -1.23; glycan array binding signal (z-score) [23]: 0.275; glycan array binding signal (z-score) [24]: -1.27; glycan array binding signal (z-score) [25]: -0.943; glycan array binding signal (z-score) [26]: 0.131; glycan array binding signal (z-score) (Neu5Gc(a2-3)Gal(b1-4)Glc): -0.302; glycan array binding signal (z-score) [27]: -1.14; glycan array binding signal (z-score) [28]: -0.553; glycan array binding signal (z-score) [29]: -0.615; glycan array binding signal (z-score) [30]: -0.648; glycan array binding signal (z-score) (Neu5Gc(a2-6)GalNAc): -0.987; glycan array binding signal (z-score) [31]: -1.34; glycan array binding signal (z-score) [32]: -0.838; glycan array binding signal (z-score) [33]: -0.468
